Data as given in PubChem BioAssay AID743454 (Peter MacCallum Cancer Centre, 2014).

Purpose: 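Genes whose loss kills vorinostat-resistant colon cancer cells under vorinostat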 (primary screen)
Cells: human HCT116-VR colon cancer cells, selected for vorinostat resistance
Reagents: siRNA pool against human genes, 40 nM siRNA pool
Time to read-out: vorinostat for 24 h, read-out about 72 h after transfection
Conditions: vorinostat at 2.5 µM final
Measured: 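Cell viability by CellTiter-Fluor and caspase 3/7 activity by luminescence, each scaled to mock wells per plate, duplicates averaged, then robust z-scored over all plates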
Direction: viability robust z-score: higher = more viable cells than screen typical; caspase robust z-score: higher = more caspase 3/7 activity than screen typical
Call rule: 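a knock-down is a hit when classed RV1 or RV2 for lowered viability, or CA1 or CA2 for caspase activation; those lethal without drug were dropped; hits were retested singly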
The deposit covers about 18,000 reagents; this is a random part of them. 450 of all reagents (2.5%) were called active. 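Single biological run; no consistent viability z cut-off exists, so the class columns, not z-scores, define the calls.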 No sequences are given here.

SNX1 (sorting nexin 1)
- viability hit class: no change
- caspase hit class: no change
- viability robust z-score: -0.66
- caspase robust z-score: 0.49
- outcome: inactive

SIPA1L3 (signal induced proliferation associated 1 like 3)
- viability hit class: no change
- caspase hit class: no change
- viability robust z-score: -0.45
- caspase robust z-score: 2
- outcome: inactive

NR1H4 (nuclear receptor subfamily 1 group H member 4)
- viability hit class: no change
- caspase hit class: no change
- viability robust z-score: 0.25
- caspase robust z-score: 1.98
- outcome: inactive

DYRK2 (dual specificity tyrosine phosphorylation regulated kinase 2)
- viability hit class: no change
- caspase hit class: no change
- viability robust z-score: -0.1
- caspase robust z-score: -0.9
- outcome: inactive

PWP1 (PWP1 homolog, endonuclein)
- viability hit class: no change
- caspase hit class: no change
- viability robust z-score: 0.03
- caspase robust z-score: 0.1
- outcome: inactive

A few values from the list:
Value of SIPA1L3 (signal induced proliferation associated 1 like 3) in “caspase robust z-score”: 2
NR1H4 (nuclear receptor subfamily 1 group H member 4), viability robust z-score: 0.25

Continued:
DLEC1 (DLEC1 cilia and flagella associated protein)
- viability hit class: no change
- caspase hit class: no change
- viability robust z-score: 0.1
- caspase robust z-score: 0.2
- outcome: inactive

ANXA13 (annexin A13)
- viability hit class: no change
- caspase hit class: no change
- viability robust z-score: 1.6
- caspase robust z-score: -0.2
- outcome: inactive

GMCL1 (germ cell-less 1, spermatogenesis associated)
- viability hit class: no change
- caspase hit class: no change
- viability robust z-score: 1.09
- caspase robust z-score: -0.44
- outcome: inactive

LENG8 (leukocyte receptor cluster member 8)
- viability hit class: no change
- caspase hit class: no change
- viability robust z-score: 0.55
- caspase robust z-score: 0.9
- outcome: inactive

TSPAN8 (tetraspanin 8)
- viability hit class: no change
- caspase hit class: no change
- viability robust z-score: -0.51
- caspase robust z-score: 0.08
- outcome: inactive

KIRREL1 (kirre like nephrin family adhesion molecule 1)
- viability hit class: no change
- caspase hit class: no change
- viability robust z-score: -0.62
- caspase robust z-score: 2.92
- outcome: inactive

CCDC157 (coiled-coil domain containing 157)
- viability hit class: no change
- caspase hit class: no change
- viability robust z-score: -1.54
- caspase robust z-score: 4.04
- outcome: inactive
